No constants are given. Whether binding was seen depends on the method and setting. Where a sequence is shown, tags or fusion partners need not be part of it.
Key:
[1] = target: MBP-strep-tag-SpoIIEcyt fusion protein (cytoplasmic part of SpoIIE, domains II and III) (B. subtilis 168) (UniProt P37475); test: transmission electron microscopy; ms-SpoIIEcyt after incubation with 5 mM EDTA; both purified
[2] = target: MBP-strep-tag-SpoIIEcyt fusion protein (cytoplasmic part of SpoIIE, domains II and III) (B. subtilis 168) (UniProt P37475); test: co-sedimentation; 10 μM ms-SpoIIEcyt in 50 mM MES/NaOH pH 6.5, 50 mM KCl with 1 mM EDTA (20 min), or with 10 mM EDTA added after the MnCl2 step (40 min); spun at 186,000 x g, supernatant and pellet on SDS-PAGE; both purified

- binding [1]: no binding (condition: with 5 mM EDTA)
B1: MBP-strep-tag-SpoIIEcyt fusion protein (cytoplasmic part of SpoIIE, domains II and III) (domain or fragment, B. subtilis 168, UniProt P37475 326-827, looked up)
chain: RKVARYIPGTVEHLQEQQQYARKIRDVTAQKVDQFSNVFHALSESFATFYQASDEQTDDSEVDLFLSKITEHSCQTCYKKNRCWVQNFDKTYDLMKQVMLETEEKEYASNRRLKKEFQQYCSKSKQVEELIEDELAHHHAHLTLKKKVQDSRRLVAEQLLGVSEVMADFSREIKREREQHFLQEEQIIEALQHFGIEIQHVEIYSLEQGNIDIEMTIPFSGHGESEKIIAPMLSDILEEQILVKAEQHSPHPNGYSHVAFGSTKSYRVSTGAAHAAKGGGLVSGDSYSMMELGARKYAAAISDGMGNGARAHFESNETIKLLEKILESGIDEKIAIKTINSILSLRTTDEIYSTLDLSIIDLQDASCKFLKVGSTPSFIKRGDQVMKVQASNLPIGIINEFDVEVVSEQLKAGDLLIMMSDGIFEGPKHVENHDLWMKRKMKGLKTNDPQEIADLLMEEVIRTRSGQIEDDMTVVVVRIDHNTPKWASIPVPAIFQNKQEIS
notes: SpoIIE of Bacillus subtilis 168, domains II and III (cytoplasmic part), amino acids 326-827; called a 501 residue fragment; Order on the chain: MBP (from pMalC2x), short strep-tag, SpoIIE 326-827; Co-purifies with about 2 Fe per protein; also called ms-SpoIIEcyt; source: E. coli BL21-RIL, purified (amylose resin, eluted with maltose); not shown: MBP, N-terminal, kept; strep-tag, N-terminal, kept
- binding [2]: no binding (condition: with 1 mM EDTA (10 μM protein))
